Drawing on publication PMC9054780, this text covers binding for one substance.

Sequences of proteins named here, by UniProt entry; tags and fusion partners are left off. Residues count along the entry.
UniProt P05362, residues 28-532: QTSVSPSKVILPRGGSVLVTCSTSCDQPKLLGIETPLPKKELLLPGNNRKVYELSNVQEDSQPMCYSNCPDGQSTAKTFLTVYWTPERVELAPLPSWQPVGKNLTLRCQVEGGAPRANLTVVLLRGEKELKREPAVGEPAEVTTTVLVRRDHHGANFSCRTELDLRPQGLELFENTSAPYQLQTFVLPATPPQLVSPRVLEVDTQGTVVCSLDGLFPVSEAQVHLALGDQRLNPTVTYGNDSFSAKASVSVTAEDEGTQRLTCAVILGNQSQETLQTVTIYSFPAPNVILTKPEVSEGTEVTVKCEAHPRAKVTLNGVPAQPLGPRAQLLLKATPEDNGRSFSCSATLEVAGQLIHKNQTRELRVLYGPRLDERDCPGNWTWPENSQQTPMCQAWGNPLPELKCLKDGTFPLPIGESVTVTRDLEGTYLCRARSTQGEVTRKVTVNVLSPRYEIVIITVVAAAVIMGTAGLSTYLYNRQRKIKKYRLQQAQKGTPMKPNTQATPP
UniProt P08581, residues 25-1390: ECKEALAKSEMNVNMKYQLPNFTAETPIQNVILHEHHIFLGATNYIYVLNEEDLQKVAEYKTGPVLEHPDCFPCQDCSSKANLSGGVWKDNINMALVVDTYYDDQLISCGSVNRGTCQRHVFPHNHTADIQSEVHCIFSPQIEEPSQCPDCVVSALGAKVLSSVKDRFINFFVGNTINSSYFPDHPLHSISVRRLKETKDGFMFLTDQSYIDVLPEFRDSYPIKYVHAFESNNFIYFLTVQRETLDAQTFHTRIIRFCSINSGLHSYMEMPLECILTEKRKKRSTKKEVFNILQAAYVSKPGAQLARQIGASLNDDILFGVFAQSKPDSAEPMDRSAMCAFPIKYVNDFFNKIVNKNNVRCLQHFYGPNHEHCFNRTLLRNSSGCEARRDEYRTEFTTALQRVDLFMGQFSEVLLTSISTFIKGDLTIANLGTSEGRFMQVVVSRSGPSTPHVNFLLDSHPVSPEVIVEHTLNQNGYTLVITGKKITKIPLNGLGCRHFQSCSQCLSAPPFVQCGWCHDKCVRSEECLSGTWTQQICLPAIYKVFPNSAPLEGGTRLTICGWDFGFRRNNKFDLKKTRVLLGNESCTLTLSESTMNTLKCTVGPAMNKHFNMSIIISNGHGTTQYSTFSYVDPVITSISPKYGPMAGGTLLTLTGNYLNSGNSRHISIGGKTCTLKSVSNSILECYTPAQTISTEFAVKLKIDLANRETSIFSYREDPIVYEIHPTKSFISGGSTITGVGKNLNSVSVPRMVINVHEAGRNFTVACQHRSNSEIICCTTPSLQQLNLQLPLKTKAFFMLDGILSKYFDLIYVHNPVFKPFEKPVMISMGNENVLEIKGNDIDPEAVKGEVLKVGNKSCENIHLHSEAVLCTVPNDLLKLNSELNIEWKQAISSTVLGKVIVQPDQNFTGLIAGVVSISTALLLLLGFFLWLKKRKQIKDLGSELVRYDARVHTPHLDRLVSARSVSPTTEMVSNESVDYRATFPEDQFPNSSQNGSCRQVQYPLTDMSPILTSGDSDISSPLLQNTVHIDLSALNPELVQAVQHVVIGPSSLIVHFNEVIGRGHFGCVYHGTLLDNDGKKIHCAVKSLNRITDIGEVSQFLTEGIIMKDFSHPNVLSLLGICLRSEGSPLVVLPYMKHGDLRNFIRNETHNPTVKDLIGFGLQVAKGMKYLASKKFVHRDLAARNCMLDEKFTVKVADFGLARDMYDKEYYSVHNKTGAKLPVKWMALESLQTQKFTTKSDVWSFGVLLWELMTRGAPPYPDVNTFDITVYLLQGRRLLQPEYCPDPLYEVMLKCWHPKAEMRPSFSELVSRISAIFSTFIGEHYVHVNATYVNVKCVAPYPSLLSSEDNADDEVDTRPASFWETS

No constants are given. Whether binding was seen depends on the method and setting. In cells and extracts the contact can be indirect. Some binding calls cover weakened binding; strength is not graded here.

The experiment addresses intracellular adhesion molecule-1 (ICAM-1) (human (endogenous in SW-480 and HCT-116)) (UniProt P05362). The experiment is described as follows: co-IP; endogenous proteins in lysates of SW-480 and HCT-116 cells (40 mM Tris-HCl pH 8.0, 120 mM NaCl, 0.1% Nonidet-P40); primary antibody overnight, protein A-agarose 2 h at 4 °C, IgG as control; for c-MET and SRC also after silencing of ICAM-1 or ICAM-1 neutralizing antibody (2 ug/mL).

For “tyrosine-protein kinase Met (c-MET) (from UniProt P08581 25-1390) (receptor)”, the binding result was “binds”.
